From paper doi:10.1101/2020.09.17.297960
No constants are given. Whether binding was seen depends on the method and setting. In cells and extracts the contact can be indirect. Some entries that bind do so weakly or less than the wild type. One block for each molecule: values may come before it.

The chains behind the UniProt entries cited, without tags or fusion partners.
UniProt Q9NYV4: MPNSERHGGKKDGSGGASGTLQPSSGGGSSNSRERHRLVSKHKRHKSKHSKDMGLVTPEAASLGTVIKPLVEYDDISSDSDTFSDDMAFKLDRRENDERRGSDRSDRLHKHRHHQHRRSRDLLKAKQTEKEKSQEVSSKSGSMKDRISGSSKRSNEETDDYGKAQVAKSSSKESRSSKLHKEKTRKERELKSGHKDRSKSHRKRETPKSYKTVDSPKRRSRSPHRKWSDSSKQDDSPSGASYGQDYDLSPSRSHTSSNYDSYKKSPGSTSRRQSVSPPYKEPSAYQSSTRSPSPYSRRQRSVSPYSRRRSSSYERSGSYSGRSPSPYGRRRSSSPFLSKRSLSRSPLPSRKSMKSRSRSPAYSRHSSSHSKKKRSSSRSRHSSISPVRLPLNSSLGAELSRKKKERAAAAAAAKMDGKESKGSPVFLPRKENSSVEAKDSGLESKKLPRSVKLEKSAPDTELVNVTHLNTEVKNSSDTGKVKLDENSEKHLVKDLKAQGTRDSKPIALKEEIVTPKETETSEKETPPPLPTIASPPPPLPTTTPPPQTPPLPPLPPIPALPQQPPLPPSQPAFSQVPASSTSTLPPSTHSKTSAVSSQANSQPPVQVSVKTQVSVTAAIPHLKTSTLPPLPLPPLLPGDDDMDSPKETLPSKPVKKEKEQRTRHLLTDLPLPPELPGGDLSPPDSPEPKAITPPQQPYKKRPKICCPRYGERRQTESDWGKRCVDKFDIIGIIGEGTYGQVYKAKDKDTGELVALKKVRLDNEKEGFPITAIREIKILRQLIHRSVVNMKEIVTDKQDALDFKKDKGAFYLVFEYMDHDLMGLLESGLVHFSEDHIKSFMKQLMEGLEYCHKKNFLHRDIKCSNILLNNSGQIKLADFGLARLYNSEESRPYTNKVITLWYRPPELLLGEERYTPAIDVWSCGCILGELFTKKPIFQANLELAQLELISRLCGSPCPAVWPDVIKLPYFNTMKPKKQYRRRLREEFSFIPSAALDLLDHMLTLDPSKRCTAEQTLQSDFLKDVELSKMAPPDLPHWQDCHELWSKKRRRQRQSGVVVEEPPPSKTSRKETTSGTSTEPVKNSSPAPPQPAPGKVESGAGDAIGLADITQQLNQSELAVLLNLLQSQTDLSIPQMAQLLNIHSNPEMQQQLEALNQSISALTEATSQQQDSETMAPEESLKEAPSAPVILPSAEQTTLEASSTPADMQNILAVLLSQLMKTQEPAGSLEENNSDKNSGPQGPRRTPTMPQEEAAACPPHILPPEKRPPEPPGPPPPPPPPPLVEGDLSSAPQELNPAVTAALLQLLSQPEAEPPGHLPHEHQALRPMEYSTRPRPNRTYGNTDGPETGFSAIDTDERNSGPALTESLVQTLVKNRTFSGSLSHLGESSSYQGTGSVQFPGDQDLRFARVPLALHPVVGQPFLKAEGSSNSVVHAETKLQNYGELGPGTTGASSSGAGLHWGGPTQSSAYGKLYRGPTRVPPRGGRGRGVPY
UniProt O75909: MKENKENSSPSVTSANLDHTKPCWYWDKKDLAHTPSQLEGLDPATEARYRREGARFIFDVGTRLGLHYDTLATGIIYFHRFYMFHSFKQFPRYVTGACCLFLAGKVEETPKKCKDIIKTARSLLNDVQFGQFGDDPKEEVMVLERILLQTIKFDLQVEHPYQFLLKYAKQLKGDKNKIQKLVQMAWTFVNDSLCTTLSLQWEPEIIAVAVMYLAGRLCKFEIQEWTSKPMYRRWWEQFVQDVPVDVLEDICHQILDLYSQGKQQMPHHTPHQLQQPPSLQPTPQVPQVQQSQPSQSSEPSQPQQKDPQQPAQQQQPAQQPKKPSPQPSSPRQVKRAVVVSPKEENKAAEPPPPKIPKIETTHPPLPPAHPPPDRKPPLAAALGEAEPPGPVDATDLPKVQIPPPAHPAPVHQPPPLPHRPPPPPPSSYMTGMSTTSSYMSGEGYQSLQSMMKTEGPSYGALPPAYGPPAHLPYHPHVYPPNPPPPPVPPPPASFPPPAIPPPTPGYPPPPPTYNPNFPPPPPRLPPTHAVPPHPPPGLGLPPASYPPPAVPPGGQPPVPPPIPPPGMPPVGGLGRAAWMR

Columns and labels:
CDK12 = CDK12 (UniProt Q9NYV4); assay: co-IP
Cyclin K = Cyclin K (UniProt O75909); assay: co-IP

binding (CDK12): binds
Molecule: Cyclin K (from UniProt O75909 1-580)

binding (CDK12): binds
binding (Cyclin K): binds
B1: Elongin A (overexpressed) (protein, UniProt Q14241 1-772)
chain: MAAESALQVVEKLQARLAANPDPKKLLKYLKKLSTLPITVDILAETGVGKTVNSLRKHEHVGSFARDLVAQWKKLVPVERNAEPDEQDFEKSNSRKRPRDALQKEEEMEGDYQETWKATGSRSYSPDHRQKKHRKLSELERPHKVSHGHERRDERKRCHRMSPTYSSDPESSDYGHVQSPPSCTSPHQMYVDHYRSLEEDQEPIVSHQKPGKGHSNAFQDRLGASQERHLGEPHGKGVVSQNKEHKSSHKDKRPVDAKSDEKASVVSREKSHKALSKEENRRPPSGDNAREKPPSSGVKKEKDREGSSLKKKCLPPSEAASDNHLKKPKHRDPEKAKLDKSKQGLDSFDTGKGAGDLLPKVKEKGSNNLKTPEGKVKTNLDRKSLGSLPKVEETDMEDEFEQPTMSFESYLSYDQPRKKKKKIVKTSATALGDKGLKKNDSKSTGKNLDSVQKLPKVNKTKSEKPAGADLAKLRKVPDVLPVLPDLPLPAIQANYRPLPSLELISSFQPKRKAFSSPQEEEEAGFTGRRMNSKMQVYSGSKCAYLPKMMTLHQQCIRVLKNNIDSIFEVGGVPYSVLEPVLERCTPDQLYRIEEYNHVLIEETDQLWKVHCHRDFKEERPEEYESWREMYLRLQDAREQRLRVLTKNIQFAHANKPKGRQAKMAFVNSVAKPPRDVRRRQEKFGTGGAAVPEKIKIKPAPYPMGSSHASASSISFNPSPEEPAYDGPSTSSAHLAPVVSSTVSYDPRKPTVKKIAPMMAKTIKAFKNRFSRR
